Test results: publication PMC4571948
Results are given in words; binding and its absence hold for the method and conditions named. A result given as binding can be weak or reduced; the word gives no strength. Where a sequence is shown, tags or fusion partners need not be part of it.

B1: NubG-2HA-tagged CLIP3 (wild type) (protein, UniProt Q96DZ5 1-547)
chain: MTKTDPAPMAPPPRGEEEEEEEEDEPVPEAPSPTQERRQKPVVHPSAPAPLPKDYAFTFFDPNDPACQEILFDPQTTIPELFAIVRQWVPQVQHKIDVIGNEILRRGCHVNDRDGLTDMTLLHYACKAGAHGVGDPAAAVRLSQQLLALGADVTLRSRWTNMNALHYAAYFDVPDLVRVLLKGARPRVVNSTCSDFNHGSALHIAASSLCLGAAKCLLEHGANPALRNRKGQVPAEVVPDPMDMSLDKAEAALVAKELRTLLEEAVPLSCALPKVTLPNYDNVPGNLMLSALGLRLGDRVLLDGQKTGTLRFCGTTEFASGQWVGVELDEPEGKNDGSVGGVRYFICPPKQGLFASVSKISKAVDAPPSSVTSTPRTPRMDFSRVTGKGRREHKGKKKTPSSPSLGSLQQRDGAKAEVGDQVLVAGQKQGIVRFYGKTDFAPGYWYGIELDQPTGKHDGSVFGVRYFTCPPRHGVFAPASRIQRIGGSTDSPGDSVGAKKVHQVTMTQPKRTFTTVRTPKDIASENSISRLLFCCWFPWMLRAEMQS
B2: NubG-2HA-tagged CSPα (wild type) (protein, UniProt Q29455 1-198)
chain: MADQRQRSLSTSGESLYHVLGLDKNATSDDIKKSYRKLALKYHPDKNPDNPEAADKFKEINNAHAILTDATKRNIYDKYGSLGLYVAEQFGEENVNTYFVLSSWWAKALFIFCGLLTCCYCCCCLCCCFNCCCGKCKPKAPEGEETEFYVSPEDLEAQLQSDEREAADTPIVIQPASATETTQLTADSHPSYHTDGFN
B3: NubG-2HA-tagged SNAP23 (wild type) (protein, UniProt O09044 1-210)
chain: MDNLSPEEVQLRAHQVTDESLESTRRILGLAIESQDAGIKTITMLDEQGEQLNRIEEGMDQINKDMREAEKTLTELNKCCGLCICPCNRTKNFESGKNYKATWGDGGDNSPSNVVSKQPSRITNGQPQQTTGAASGGYIKRITNDAREDEMEENLTQVGSILGNLKNMALDMGNEIDAQNQQIQKITEKADTNKNRIDIANTRAKKLIDS

Molecular target: zDHHC13 ΔN truncation mutant, Cub-PLV bait (murine)
Assay: two-hybrid; mating-based split ubiquitin system (SUS) in yeast: zDHHC-Cub-PLV baits, NubG-2HA-tagged preys; growth on synthetic defined medium (PLV-dependent activation of auxotrophy genes)

binding, binds:
B1
B2
B3

Molecular target: zDHHC17 ΔN truncation mutant, Cub-PLV bait (murine)
Assay: as above

binding, binds:
B1
B2
B3
